Laboratory results as given in the supplement of paper PMC4604168 (melanoma cell lines).
Some of the results follow. Many values rest on one well or one pass, so single values are uncertain.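 Imaging used 1,536-well plates; nuclei positive for cleaved PARP by antibody were divided by total DNA-stained nuclei to yield the apoptosis fraction. Doses for screening kept most cells viable, and cell lines differ markedly in resting and induced cleaved-PARP levels.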

How the values were obtained:
Assay in all cases: cleaved PARP positive nuclei fraction relative to DMSO control; melanoma cells; higher = more apoptosis
Conditions in all cases: library dose: low library concentration; 72 h
[1] = test system: WM115
[2] = test system: WM1716
[3] = test system: WM1745
[4] = test system: WM3526
[5] = test system: WM3619
[6] = test system: WM451Lu

C[As](C)SC[C@H](NC(=O)CC[C@H](N)C(=O)O)C(=O)NCC(=O)O [Darinaparsin] + OCCn1cc(-c2cnc3nnn(Cc4ccc5ncccc5c4)c3n2)cn1 [PF04217903] (first compound 0.4 µM, partner dose 1 µM)
cleaved PARP positive nuclei fraction [1]: 30.3%
cleaved PARP positive nuclei fraction [2]: 46.1%
cleaved PARP positive nuclei fraction [3]: 116%
cleaved PARP positive nuclei fraction [4]: 303%
cleaved PARP positive nuclei fraction [5]: 79.8%
cleaved PARP positive nuclei fraction [6]: 154%

CN(c1ncccc1CNc1nc(Nc2ccc3c(c2)CC(=O)N3)ncc1C(F)(F)F)S(C)(=O)=O + C[As](C)SC[C@H](NC(=O)CC[C@H](N)C(=O)O)C(=O)NCC(=O)O [Darinaparsin] (first compound 0.08 µM, partner dose 0.4 µM)
cleaved PARP positive nuclei fraction [1]: 120%
cleaved PARP positive nuclei fraction [2]: 78.7%
cleaved PARP positive nuclei fraction [3]: 108%
cleaved PARP positive nuclei fraction [4]: 61.8%
cleaved PARP positive nuclei fraction [5]: 92.9%
cleaved PARP positive nuclei fraction [6]: 48.9%

C[As](C)SC[C@H](NC(=O)CC[C@H](N)C(=O)O)C(=O)NCC(=O)O [Darinaparsin] + Cn1cc(/C=C2\C(=O)Nc3cccnc32)c2ccccc21 [GW441756] (first compound 0.4 µM, partner dose 0.4 µM)
cleaved PARP positive nuclei fraction [1]: 53.2%
cleaved PARP positive nuclei fraction [2]: 84.2%
cleaved PARP positive nuclei fraction [3]: 103%
cleaved PARP positive nuclei fraction [4]: 248%
cleaved PARP positive nuclei fraction [5]: 71.2%
cleaved PARP positive nuclei fraction [6]: 75.1%

O=C(Nc1cc(C(F)(F)F)cc(C(F)(F)F)c1)c1cc(Cl)ccc1O + C[As](C)SC[C@H](NC(=O)CC[C@H](N)C(=O)O)C(=O)NCC(=O)O [Darinaparsin] (first compound 0.016 µM, partner dose 0.4 µM)
cleaved PARP positive nuclei fraction [1]: 157%
cleaved PARP positive nuclei fraction [2]: 25.9%
cleaved PARP positive nuclei fraction [3]: 95.5%
cleaved PARP positive nuclei fraction [4]: 46.1%
cleaved PARP positive nuclei fraction [5]: 79.9%
cleaved PARP positive nuclei fraction [6]: 56%

Cn1sc(=O)n(Cc2ccccc2)c1=O + C/C(O)=C(\C#N)C(=O)Nc1cc(Br)ccc1Br [LFM-A13] (first compound 0.4 µM, partner dose 2 µM)
cleaved PARP positive nuclei fraction [1]: 121%
cleaved PARP positive nuclei fraction [2]: 33.4%
cleaved PARP positive nuclei fraction [3]: 77.4%
cleaved PARP positive nuclei fraction [4]: 36.7%
cleaved PARP positive nuclei fraction [5]: 158%
cleaved PARP positive nuclei fraction [6]: 85.2%

N.N.[Cl][Pt][Cl] [cisplatin] + Cc1cc([N+](=O)[O-])ccc1NS(=O)(=O)c1cc(Cl)ccc1Cl [FH535] (first compound 1.6 µM, partner dose 1 µM)
cleaved PARP positive nuclei fraction [1]: 150%
cleaved PARP positive nuclei fraction [2]: 103%
cleaved PARP positive nuclei fraction [3]: 92%
cleaved PARP positive nuclei fraction [4]: 145%
cleaved PARP positive nuclei fraction [5]: 92.3%
cleaved PARP positive nuclei fraction [6]: 39.6%

N.N.[Cl][Pt][Cl] [cisplatin] + NCC(=O)Nc1ccc(-n2nc(C(F)(F)F)cc2-c2ccc3c(ccc4ccccc43)c2)cc1 [OSU03012] (first compound 1.6 µM, partner dose 1 µM)
cleaved PARP positive nuclei fraction [1]: 32.3%
cleaved PARP positive nuclei fraction [2]: 103%
cleaved PARP positive nuclei fraction [3]: 92.2%
cleaved PARP positive nuclei fraction [4]: 43.2%
cleaved PARP positive nuclei fraction [5]: 86.9%
cleaved PARP positive nuclei fraction [6]: 97.2%

O=C(O)c1ccc2c(c1)nc(Nc1cccc(Cl)c1)c1ccncc12 + C[As](C)SC[C@H](NC(=O)CC[C@H](N)C(=O)O)C(=O)NCC(=O)O [Darinaparsin] (first compound 0.4 µM, partner dose 0.4 µM)
cleaved PARP positive nuclei fraction [1]: 41%
cleaved PARP positive nuclei fraction [2]: 159%
cleaved PARP positive nuclei fraction [3]: 116%
cleaved PARP positive nuclei fraction [4]: 27.1%
cleaved PARP positive nuclei fraction [5]: 80.4%
cleaved PARP positive nuclei fraction [6]: 51%

Cn1c(Nc2ccc(C(F)(F)F)cc2)nc2cc(Oc3ccnc(-c4ncc(C(F)(F)F)[nH]4)c3)ccc21 + O=C(Oc1ccc([N+](=O)[O-])cc1)N1CCC(C(O)(c2ccc3c(c2)OCO3)c2ccc3c(c2)OCO3)CC1 [JZL184] (first compound 0.08 µM, partner dose 1 µM)
cleaved PARP positive nuclei fraction [1]: 135%
cleaved PARP positive nuclei fraction [2]: 109%
cleaved PARP positive nuclei fraction [3]: 130%
cleaved PARP positive nuclei fraction [4]: 205%
cleaved PARP positive nuclei fraction [5]: 153%
cleaved PARP positive nuclei fraction [6]: 328%

Cc1ccc(Nc2nccc(N(C)c3ccc4c(C)n(C)nc4c3)n2)cc1S(N)(=O)=O [Pazopanib] + C[C@]12O[C@H](C[C@]1(O)CO)n1c3ccccc3c3c4c(c5c6ccccc6n2c5c31)CNC4=O [Lestaurtinib] (first compound 0.4 µM, partner dose 0.004 µM)
cleaved PARP positive nuclei fraction [1]: 91.8%
cleaved PARP positive nuclei fraction [2]: 121%
cleaved PARP positive nuclei fraction [3]: 113%
cleaved PARP positive nuclei fraction [4]: 411%
cleaved PARP positive nuclei fraction [5]: 90.6%
cleaved PARP positive nuclei fraction [6]: 25.8%

Cn1cc(C2=C(c3cn(C4CCN(Cc5ccccn5)CC4)c4ccccc34)C(=O)NC2=O)c2ccccc21 [Enzastaurin] + Cn1sc(=O)n(Cc2ccccc2)c1=O [TDZD-8] (first compound 0.8 µM, partner dose 0.4 µM)
cleaved PARP positive nuclei fraction [1]: 51.2%
cleaved PARP positive nuclei fraction [2]: 117%
cleaved PARP positive nuclei fraction [3]: 91.8%
cleaved PARP positive nuclei fraction [4]: 33.7%
cleaved PARP positive nuclei fraction [5]: 77.3%
cleaved PARP positive nuclei fraction [6]: 105%

Cn1nnc2c(C(N)=O)ncn2c1=O [temozolomide] + Cc1cc(SCc2sc(-c3ccc(C(F)(F)F)c(F)c3)nc2C)ccc1OCC(=O)O [GW0742] (first compound 2 µM, partner dose 2 µM)
cleaved PARP positive nuclei fraction [1]: 64%
cleaved PARP positive nuclei fraction [2]: 103%
cleaved PARP positive nuclei fraction [3]: 95.5%
cleaved PARP positive nuclei fraction [4]: 134%
cleaved PARP positive nuclei fraction [5]: 76.8%
cleaved PARP positive nuclei fraction [6]: 69.5%

Cn1cc(C2=C(c3cn(C4CCN(Cc5ccccn5)CC4)c4ccccc34)C(=O)NC2=O)c2ccccc21 [Enzastaurin] + CC(C)C[C@H](NC(=O)[C@H](Cc1ccccc1)NC(=O)c1cnccn1)B(O)O [Bortezomib] (first compound 0.8 µM, partner dose 0.001 µM)
cleaved PARP positive nuclei fraction [1]: 73.1%
cleaved PARP positive nuclei fraction [2]: 223%
cleaved PARP positive nuclei fraction [3]: 215%
cleaved PARP positive nuclei fraction [4]: 39.3%
cleaved PARP positive nuclei fraction [5]: 1000%
cleaved PARP positive nuclei fraction [6]: 82.6%

Cn1sc(=O)n(Cc2ccccc2)c1=O + N.N.[Cl][Pt][Cl] [cisplatin] (first compound 0.4 µM, partner dose 1.6 µM)
cleaved PARP positive nuclei fraction [1]: 285%
cleaved PARP positive nuclei fraction [2]: 732%
cleaved PARP positive nuclei fraction [3]: 101%
cleaved PARP positive nuclei fraction [4]: 92%
cleaved PARP positive nuclei fraction [5]: 91.9%
cleaved PARP positive nuclei fraction [6]: 43.2%

Cc1nc(Nc2ncc(C(=O)Nc3c(C)cccc3Cl)s2)cc(N2CCN(CCO)CC2)n1 [dasatanib] + Cc1cc(SCc2sc(-c3ccc(C(F)(F)F)c(F)c3)nc2C)ccc1OCC(=O)O [GW0742] (first compound 0.004 µM, partner dose 2 µM)
cleaved PARP positive nuclei fraction [1]: 107%
cleaved PARP positive nuclei fraction [2]: 216%
cleaved PARP positive nuclei fraction [3]: 163%
cleaved PARP positive nuclei fraction [4]: 198%
cleaved PARP positive nuclei fraction [5]: 97.4%
cleaved PARP positive nuclei fraction [6]: 606%

CC[C@]1(O)C[C@H]2CN(CCc3c([nH]c4ccccc34)[C@@](C(=O)OC)(c3cc4c(cc3OC)N(C=O)[C@H]3[C@@](O)(C(=O)OC)[C@H](OC(C)=O)[C@]5(CC)C=CCN6CC[C@]43[C@@H]65)C2)C1 [vincristine] + C[As](C)SC[C@H](NC(=O)CC[C@H](N)C(=O)O)C(=O)NCC(=O)O [Darinaparsin] (first compound 0.0001 µM, partner dose 0.4 µM)
cleaved PARP positive nuclei fraction [1]: 1570%
cleaved PARP positive nuclei fraction [2]: 767%
cleaved PARP positive nuclei fraction [3]: 111%
cleaved PARP positive nuclei fraction [4]: 74.1%
cleaved PARP positive nuclei fraction [5]: 518%
cleaved PARP positive nuclei fraction [6]: 221%

CCc1ccc(CCOc2ccc(CC3SC(=O)NC3=O)cc2)nc1 (stereo not given) [pioglitazone] + C/C(O)=C(\C#N)C(=O)Nc1cc(Br)ccc1Br [LFM-A13] (first compound 2 µM, partner dose 2 µM)
cleaved PARP positive nuclei fraction [1]: 99.2%
cleaved PARP positive nuclei fraction [2]: 65.3%
cleaved PARP positive nuclei fraction [3]: 130%
cleaved PARP positive nuclei fraction [4]: 80.3%
cleaved PARP positive nuclei fraction [5]: 170%
cleaved PARP positive nuclei fraction [6]: 120%

C[As](C)SC[C@H](NC(=O)CC[C@H](N)C(=O)O)C(=O)NCC(=O)O [Darinaparsin] + O=S(=O)(c1ccccc1)N(CC(F)(F)F)c1ccc(C(O)(C(F)(F)F)C(F)(F)F)cc1 [T0901317] (first compound 0.4 µM, partner dose 1.4 µM)
cleaved PARP positive nuclei fraction [1]: 74%
cleaved PARP positive nuclei fraction [2]: 130%
cleaved PARP positive nuclei fraction [3]: 117%
cleaved PARP positive nuclei fraction [4]: 75.4%
cleaved PARP positive nuclei fraction [5]: 83.1%
cleaved PARP positive nuclei fraction [6]: 58.9%

CCc1ccc(CCOc2ccc(CC3SC(=O)NC3=O)cc2)nc1 (stereo not given) [pioglitazone] + Cc1cc(SCc2sc(-c3ccc(C(F)(F)F)c(F)c3)nc2C)ccc1OCC(=O)O [GW0742] (first compound 2 µM, partner dose 2 µM)
cleaved PARP positive nuclei fraction [1]: 143%
cleaved PARP positive nuclei fraction [2]: 157%
cleaved PARP positive nuclei fraction [3]: 110%
cleaved PARP positive nuclei fraction [4]: 186%
cleaved PARP positive nuclei fraction [5]: 66.5%
cleaved PARP positive nuclei fraction [6]: 43.3%

Cc1cc(SCc2sc(-c3ccc(C(F)(F)F)c(F)c3)nc2C)ccc1OCC(=O)O + O=C(O)C(=O)Nc1sc2c(c1C(=O)O)CCNC2 [TCS401] (first compound 2 µM, partner dose 1.66667 µM)
cleaved PARP positive nuclei fraction [1]: 91%
cleaved PARP positive nuclei fraction [2]: 106%
cleaved PARP positive nuclei fraction [3]: 107%
cleaved PARP positive nuclei fraction [4]: 66%
cleaved PARP positive nuclei fraction [5]: 104%
cleaved PARP positive nuclei fraction [6]: 216%

C[C@]12O[C@H](C[C@]1(O)CO)n1c3ccccc3c3c4c(c5c6ccccc6n2c5c31)CNC4=O [Lestaurtinib] + O=C(O)C(=O)Nc1sc2c(c1C(=O)O)CCNC2 [TCS401] (first compound 0.004 µM, partner dose 1.66667 µM)
cleaved PARP positive nuclei fraction [1]: 119%
cleaved PARP positive nuclei fraction [2]: 188%
cleaved PARP positive nuclei fraction [3]: 103%
cleaved PARP positive nuclei fraction [4]: 87%
cleaved PARP positive nuclei fraction [5]: 71.3%
cleaved PARP positive nuclei fraction [6]: 60.2%

CC(C)C[C@H](NC(=O)[C@H](Cc1ccccc1)NC(=O)c1cnccn1)B(O)O [Bortezomib] + C[As](C)SC[C@H](NC(=O)CC[C@H](N)C(=O)O)C(=O)NCC(=O)O [Darinaparsin] (first compound 0.001 µM, partner dose 0.4 µM)
cleaved PARP positive nuclei fraction [1]: 35.7%
cleaved PARP positive nuclei fraction [2]: 760%
cleaved PARP positive nuclei fraction [3]: 113%
cleaved PARP positive nuclei fraction [4]: 29.9%
cleaved PARP positive nuclei fraction [5]: 235%
cleaved PARP positive nuclei fraction [6]: 220%

Cn1cc(C2=C(c3cn(C4CCN(Cc5ccccn5)CC4)c4ccccc34)C(=O)NC2=O)c2ccccc21 [Enzastaurin] + O=C(O)c1ccc2c(c1)nc(Nc1cccc(Cl)c1)c1ccncc12 [CX4945] (first compound 0.8 µM, partner dose 0.4 µM)
cleaved PARP positive nuclei fraction [1]: 196%
cleaved PARP positive nuclei fraction [2]: 141%
cleaved PARP positive nuclei fraction [3]: 96.5%
cleaved PARP positive nuclei fraction [4]: 38.5%
cleaved PARP positive nuclei fraction [5]: 92.8%
cleaved PARP positive nuclei fraction [6]: 53.9%

C[As](C)SC[C@H](NC(=O)CC[C@H](N)C(=O)O)C(=O)NCC(=O)O [Darinaparsin] + CC1(C)NC(=O)N(c2ccc([N+](=O)[O-])c(C(F)(F)F)c2)C1=O [nilutamide] (first compound 0.4 µM, partner dose 1 µM)
cleaved PARP positive nuclei fraction [1]: 160%
cleaved PARP positive nuclei fraction [2]: 165%
cleaved PARP positive nuclei fraction [3]: 549%
cleaved PARP positive nuclei fraction [4]: 125%
cleaved PARP positive nuclei fraction [5]: 82.5%
cleaved PARP positive nuclei fraction [6]: 126%

C[C@@H]1CCN(C(=O)CC#N)C[C@@H]1N(C)c1ncnc2[nH]ccc12 + C/C(O)=C(\C#N)C(=O)Nc1cc(Br)ccc1Br [LFM-A13] (first compound 1 µM, partner dose 2 µM)
cleaved PARP positive nuclei fraction [1]: 126%
cleaved PARP positive nuclei fraction [2]: 170%
cleaved PARP positive nuclei fraction [3]: 334%
cleaved PARP positive nuclei fraction [4]: 33.3%
cleaved PARP positive nuclei fraction [5]: 90.5%
cleaved PARP positive nuclei fraction [6]: 71.3%
